The assay has as its target T1, Bcl-2 (B-cell lymphoma-2) (mouse (endogenous in RAW264.7)), P10417.
T1 chain: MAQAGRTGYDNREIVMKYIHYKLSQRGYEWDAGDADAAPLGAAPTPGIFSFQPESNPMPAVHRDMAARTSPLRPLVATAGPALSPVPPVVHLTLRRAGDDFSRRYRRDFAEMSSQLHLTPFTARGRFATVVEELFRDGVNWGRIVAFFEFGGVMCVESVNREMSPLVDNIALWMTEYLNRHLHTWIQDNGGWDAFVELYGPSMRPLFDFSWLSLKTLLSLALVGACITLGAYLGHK
Description: co-IP; RIPA lysate (1 mM PMSF, phosphatase inhibitors) of RAW264.7 macrophages infected with S. aureus (USA300, moeA deletion mutant); anti-Bcl-2 and protein A/G beads overnight at 4°C; co-immunoprecipitated Beclin1 detected by western blot. As to conditions: remark: other sources report otherwise. (In general: Immunoblotting shows a protein as a band on a membrane.)

Results are given in words; binding and its absence hold for the method and conditions named. Binding seen in cells or lysates may run through a third protein. Some binding calls cover weakened binding; strength is not graded here.

B1: Beclin1, O88597 1-448 (protein)
chain: MEGSKASSSTMQVSFVCQRCSQPLKLDTSFKILDRVTIQELTAPLLTTAQAKPGETQEEEANSGEEPFIETRQDGVSRRFIPPARMMSTESANSFTLIGEASDGGTMENLSRRLKVTGDLFDIMSGQTDVDHPLCEECTDTLLDQLDTQLNVTENECQNYKRCLEILEQMNEDDSEQLQRELKELALEEERLIQELEDVEKNRKVVAENLEKVQAEAERLDQEEAQYQREYSEFKRQQLELDDELKSVENQVRYAQIQLDKLKKTNVFNATFHIWHSGQFGTINNFRLGRLPSVPVEWNEINAAWGQTVLLLHALANKMGLKFQRYRLVPYGNHSYLESLTDKSKELPLYCSGGLRFFWDNKFDHAMVAFLDCVQQFKEEVEKGETRFCLPYRMDVEKGKIEDTGGSGGSYSIKTQFNSEEQWTKALKFMLTNLKWGLAWVSSQFYNK
Regarding B1, the binding result is on record as “binds”.

The record behind these values is publication PMC11980563.
